Results deposited as PubChem BioAssay AID1259405 (NCATS, 2018)
This is one part, drawn at random, of about 50,000 reagents. Over the whole deposit, about 4,000 (8%) are marked active. 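Mouse siRNA library applied to hamster cells; one well for each siRNA.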 The numbers tell different reagents against one gene apart. Reagent sequences are not shown.

- Aim: 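Mouse-designed siRNAs used to find CHO productivity engineering targets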 (primary screen)
- System: Chinese hamster CHO-K1 ovary cells with stable secreted eGFP expression
- Knock-down reagent: single siRNA against mouse genes, 0.8 pmol siRNA per well (2 µl of 400 nM stock)
- Timing: 3 days
- Measured: 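Percent of the per-plate non-targeting control median for intracellular GFP per well by laser scanning cytometry and for cell viability by ATP luminescence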
- Reading the numbers: GFP, % of control: higher = more GFP per well, higher productivity; viability (ATP), % of control: higher = more viable cells (more ATP)
- Hit rule: 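Called active when intracellular GFP, relative to negative control, is at or above 120%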

The first 2 records as a preview:
gene	siRNA no.	GFP, % of control	viability (ATP), % of control	activity call
Or1j10 (olfactory receptor family 1 subfamily J member 10)	1	78	68.1	inactive
Or1j10 (olfactory receptor family 1 subfamily J member 10)	2	66	36.6	inactive

Results, from the start:
gene	siRNA no.	GFP, % of control	viability (ATP), % of control	activity call
Or1j10 (olfactory receptor family 1 subfamily J member 10)	1	78	68.1	inactive
Or1j10 (olfactory receptor family 1 subfamily J member 10)	2	66	36.6	inactive
Or1j10 (olfactory receptor family 1 subfamily J member 10)	3	52.8	74.8	inactive
Slc15a2	1	60	64.8	inactive
Slc15a2	2	43.9	67	inactive
Slc15a2	3	112	86.1	inactive
Suox (sulfite oxidase)	1	89.8	84.3	inactive
Suox (sulfite oxidase)	2	101	68.1	inactive
Suox (sulfite oxidase)	3	104	81.5	inactive
Or52h7 (olfactory receptor family 52 subfamily H member 7)	1	84.8	64.8	inactive
Or52h7 (olfactory receptor family 52 subfamily H member 7)	2	82.4	76.7	inactive
Or52h7 (olfactory receptor family 52 subfamily H member 7)	3	48.2	55.7	inactive
Or10a3m (olfactory receptor family 10 subfamily A member 3M)	1	41.1	24.5	inactive
Or10a3m (olfactory receptor family 10 subfamily A member 3M)	2	74.7	70.5	inactive
Or10a3m (olfactory receptor family 10 subfamily A member 3M)	3	80.6	67.7	inactive
Wls (wntless WNT ligand secretion mediator)	1	57.7	67.2	inactive
Wls (wntless WNT ligand secretion mediator)	2	99.5	93.1	inactive
Wls (wntless WNT ligand secretion mediator)	3	115	116	inactive
Grk4 (G protein-coupled receptor kinase 4)	1	109	98	inactive
Grk4 (G protein-coupled receptor kinase 4)	2	32.2	35.6	inactive
Grk4 (G protein-coupled receptor kinase 4)	3	102	112	inactive
Gpatch4 (G patch domain containing 4)	1	82.1	95.5	inactive
Gpatch4 (G patch domain containing 4)	2	80.4	86.5	inactive
Gpatch4 (G patch domain containing 4)	3	118	121	inactive
Or10d5j (olfactory receptor family 10 subfamily D member 5J)	1	69.6	74	inactive
Or10d5j (olfactory receptor family 10 subfamily D member 5J)	2	98.3	85.1	inactive
Or10d5j (olfactory receptor family 10 subfamily D member 5J)	3	54.6	58.3	inactive
1810055G02Rik (RIKEN cDNA 1810055G02 gene)	1	24.7	57.2	inactive
1810055G02Rik (RIKEN cDNA 1810055G02 gene)	2	97.1	70.5	inactive
1810055G02Rik (RIKEN cDNA 1810055G02 gene)	3	61.1	74.9	inactive
Ssu2 (ssu-2 homolog)	1	85.4	98.4	inactive
Ssu2 (ssu-2 homolog)	2	67.4	40.3	inactive
Ssu2 (ssu-2 homolog)	3	97	99.8	inactive
Rpl31 (ribosomal protein L31)	1	48	60.7	inactive
Rpl31 (ribosomal protein L31)	2	49.1	35.4	inactive
Rpl31 (ribosomal protein L31)	3	38.1	19.2	inactive
Ptch2 (patched 2)	1	93.2	122	inactive
Ptch2 (patched 2)	2	76.2	71.3	inactive
Zfp790 (zinc finger protein 790)	1	137	75.1	active
Zfp790 (zinc finger protein 790)	2	105	91.4	inactive
Zfp790 (zinc finger protein 790)	3	83.1	92.8	inactive
Or4a69 (olfactory receptor family 4 subfamily A member 69)	1	91	67.5	inactive
Or4a69 (olfactory receptor family 4 subfamily A member 69)	2	123	63.7	active
Or4a69 (olfactory receptor family 4 subfamily A member 69)	3	103	121	inactive
Atad2 (ATPase family, AAA domain containing 2)	1	92.9	132	inactive
Atad2 (ATPase family, AAA domain containing 2)	2	56.3	90.9	inactive
Atad2 (ATPase family, AAA domain containing 2)	3	83.7	70.4	inactive
Nmur1 (neuromedin U receptor 1)	1	60.3	65.9	inactive
Nmur1 (neuromedin U receptor 1)	2	64.1	67.9	inactive
Nmur1 (neuromedin U receptor 1)	3	82.2	76.5	inactive
Scart1 (scavenger receptor family member expressed on T cells 1)	1	67.8	80.4	inactive
Scart1 (scavenger receptor family member expressed on T cells 1)	2	63.1	84.4	inactive
Scart1 (scavenger receptor family member expressed on T cells 1)	3	70.4	70.5	inactive
Gatd1 (glutamine amidotransferase like class 1 domain containing 1)	1	74.5	54.9	inactive
Gatd1 (glutamine amidotransferase like class 1 domain containing 1)	2	70	72.9	inactive
Gatd1 (glutamine amidotransferase like class 1 domain containing 1)	3	114	101	inactive
Cracd (capping protein inhibiting regulator of actin)	1	108	65	inactive
Cracd (capping protein inhibiting regulator of actin)	2	102	62.4	inactive
Cracd (capping protein inhibiting regulator of actin)	3	140	88.8	active
Gpr85 (G protein-coupled receptor 85)	1	47.1	44.8	inactive
Gpr85 (G protein-coupled receptor 85)	2	65.2	73.6	inactive
Gpr85 (G protein-coupled receptor 85)	3	80.7	72.1	inactive
Pla2g2c (phospholipase A2, group IIC)	1	47.7	79.6	inactive
Pla2g2c (phospholipase A2, group IIC)	2	65.3	109	inactive
Pla2g2c (phospholipase A2, group IIC)	3	71	67.5	inactive
Fam91a1 (family with sequence similarity 91, member A1)	1	91.1	83.6	inactive
Fam91a1 (family with sequence similarity 91, member A1)	2	78.9	76.2	inactive
Fam91a1 (family with sequence similarity 91, member A1)	3	125	127	active
Usp46 (ubiquitin specific peptidase 46)	1	75.5	91.6	inactive
Usp46 (ubiquitin specific peptidase 46)	2	79.6	70.5	inactive
Usp46 (ubiquitin specific peptidase 46)	3	101	67.4	inactive
Agbl1 (ATP/GTP binding protein-like 1)	1	106	70.4	inactive
Agbl1 (ATP/GTP binding protein-like 1)	2	62.4	78.1	inactive
Agbl1 (ATP/GTP binding protein-like 1)	3	59.2	57.6	inactive
Mrgprb4 (MAS-related GPR, member B4)	1	55	44.7	inactive
Mrgprb4 (MAS-related GPR, member B4)	2	51.6	66.9	inactive
Mrgprb4 (MAS-related GPR, member B4)	3	65.7	75.7	inactive
Tpbg (trophoblast glycoprotein)	1	125	90.2	active
Tpbg (trophoblast glycoprotein)	2	77.1	80.4	inactive
Tpbg (trophoblast glycoprotein)	3	52.2	69.7	inactive
Krtap19-5 (keratin associated protein 19-5)	1	50.9	76.9	inactive
Krtap19-5 (keratin associated protein 19-5)	2	108	80.3	inactive
Krtap19-5 (keratin associated protein 19-5)	3	93.5	110	inactive
Apoc4 (apolipoprotein C-IV)	1	91.1	56.7	inactive
Apoc4 (apolipoprotein C-IV)	2	43.4	58.3	inactive
Apoc4 (apolipoprotein C-IV)	3	92.7	74	inactive
